Reference: the supplement of paper PMC8728848
Some of the results follow.

Experiments:
Assay in all cases: glycan array binding signal (z-score within array); higher = stronger binding
Conditions in all cases: glycan notation: IUPAC condensed, linker removed
[1] = target: Gal(b1-3)[Fuc(a1-4)]GlcNAc
Procedure, shortened: (§1)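 Glycan array data came from 3228 arrays in the Consortium for Functional Glycomics database, and only arrays with an available protein sequence were kept. Glycan names were put into IUPAC-condensed notation, and columns mapping to the same glycan were averaged. The binding signal is a within-array Z-score, averaged across arrays of one protein sequence run at different concentrations or buffers and across linkers. A negative Z-score can be read as non-binding.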

[2] = target: Gal(b1-3)[Fuc(a1-4)]GlcNAc(b1-2)Man(a1-3)[Gal(b1-3)[Fuc(a1-4)]GlcNAc(b1-2)Man(a1-6)]Man(b1-4)GlcNAc(b1-4)GlcNAc
Procedure, shortened: as §1

[3] = target: Gal(b1-3)[Fuc(a1-4)]GlcNAc(b1-2)Man(a1-3)[Gal(b1-3)[Fuc(a1-4)]GlcNAc(b1-2)Man(a1-6)]Man(b1-4)GlcNAc(b1-4)[Fuc(a1-6)]GlcNAc
Procedure, shortened: as §1

[4] = target: Gal(b1-3)[Fuc(a1-4)]GlcNAc(b1-3)Gal(b1-3)[Fuc(a1-4)]GlcNAc
Procedure, shortened: as §1

[5] = target: Gal(b1-3)[Fuc(a1-4)]GlcNAc(b1-3)Gal(b1-4)GlcNAc
Procedure, shortened: as §1

[6] = target: Gal(b1-3)[Fuc(a1-4)]GlcNAc(b1-3)Gal(b1-4)[Fuc(a1-3)]GlcNAc
Procedure, shortened: as §1

[7] = target: Gal(b1-3)[GlcNAc(b1-6)]GalNAc
Procedure, shortened: as §1

[8] = target: Gal(b1-3)[Neu5Ac(a2-6)]GalNAc
Procedure, shortened: as §1

[9] = target: Gal(b1-3)[Neu5Ac(a2-6)]GlcNAc(b1-6)Gal(b1-4)Glc
Procedure, shortened: as §1

[10] = target: Gal(b1-3)[Neu5Ac(b2-6)]GalNAc
Procedure, shortened: as §1

[11] = target: Gal(b1-4)GalNAc(a1-3)[Fuc(a1-2)]Gal(b1-4)GlcNAc
Procedure, shortened: as §1

[12] = target: Gal(b1-4)GalNAc(b1-3)[Fuc(a1-2)]Gal(b1-4)GlcNAc
Procedure, shortened: as §1

[13] = target: Gal(b1-4)Glc
Procedure, shortened: as §1

[14] = target: Gal(b1-4)Glc6S
Procedure, shortened: as §1

[15] = target: Gal(b1-4)GlcNAc
Procedure, shortened: as §1

[16] = target: Gal(b1-4)GlcNAc(a1-6)Gal(b1-4)GlcNAc
Procedure, shortened: as §1

[17] = target: Gal(b1-4)GlcNAc(b1-2)Man(a1-3)Man(b1-4)GlcNAc(b1-4)GlcNAc
Procedure, shortened: as §1

[18] = target: Gal(b1-4)GlcNAc(b1-2)Man(a1-3)[Gal(b1-4)GlcNAc(b1-2)Man(a1-6)]Man(b1-4)GlcNAc(b1-4)GlcNAc
Procedure, shortened: as §1

[19] = target: Gal(b1-4)GlcNAc(b1-2)Man(a1-3)[Gal(b1-4)GlcNAc(b1-2)Man(a1-6)]Man(b1-4)GlcNAc(b1-4)[Fuc(a1-6)]GlcNAc
Procedure, shortened: as §1

[20] = target: Gal(b1-4)GlcNAc(b1-2)Man(a1-3)[Man(a1-6)]Man(b1-4)GlcNAc(b1-4)GlcNAc
Procedure, shortened: as §1

[21] = target: Gal(b1-4)GlcNAc(b1-2)Man(a1-6)Man(b1-4)GlcNAc(b1-4)GlcNAc
Procedure, shortened: as §1

[22] = target: Gal(b1-4)GlcNAc(b1-2)Man(a1-6)[Man(a1-3)]Man(b1-4)GlcNAc(b1-4)GlcNAc
Procedure, shortened: as §1

[23] = target: Gal(b1-4)GlcNAc(b1-2)[Gal(b1-4)GlcNAc(b1-4)]Man(a1-3)[Gal(b1-4)GlcNAc(b1-2)Man(a1-6)]Man(b1-4)GlcNAc(b1-4)GlcNAc
Procedure, shortened: as §1

[24] = target: Gal(b1-4)GlcNAc(b1-3)Gal(b1-3)GlcNAc
Procedure, shortened: as §1

[25] = target: Gal(b1-4)GlcNAc(b1-3)Gal(b1-4)Glc
Procedure, shortened: as §1

[26] = target: Gal(b1-4)GlcNAc(b1-3)Gal(b1-4)GlcNAc
Procedure, shortened: as §1

[27] = target: Gal(b1-4)GlcNAc(b1-3)Gal(b1-4)GlcNAc(b1-3)Gal(b1-4)GlcNAc
Procedure, shortened: as §1

[28] = target: Gal(b1-4)GlcNAc(b1-3)Gal(b1-4)[Fuc(a1-3)]GlcNAc(b1-3)Gal(b1-4)[Fuc(a1-3)]GlcNAc
Procedure, shortened: as §1

[29] = target: Gal(b1-4)GlcNAc(b1-3)GalNAc
Procedure, shortened: as §1

[30] = target: Gal(b1-4)GlcNAc(b1-3)[Gal(b1-4)GlcNAc(b1-6)]Gal(b1-4)GlcNAc
Procedure, shortened: as §1

[31] = target: Gal(b1-4)GlcNAc(b1-3)[GlcNAc(b1-6)]Gal(b1-4)GlcNAc
Procedure, shortened: as §1

[32] = target: Gal(b1-4)GlcNAc(b1-6)Gal(b1-4)GlcNAc
Procedure, shortened: as §1

[33] = target: Gal(b1-4)GlcNAc(b1-6)Gal(b1-4)GlcNAc(b1-6)GalNAc
Procedure, shortened: as §1

[34] = target: Gal(b1-4)GlcNAc(b1-6)GalNAc
Procedure, shortened: as §1

[35] = target: Gal(b1-4)GlcNAc(b1-6)[Gal(b1-3)]GalNAc
Procedure, shortened: as §1

[36] = target: Gal3S(b1-3)GalNAc
Procedure, shortened: as §1

[37] = target: Gal3S(b1-3)GlcNAc
Procedure, shortened: as §1

[38] = target: Gal3S(b1-3)[Fuc(a1-4)]GlcNAc
Procedure, shortened: as §1

[39] = target: Gal3S(b1-4)Glc
Procedure, shortened: as §1

[40] = target: Gal3S(b1-4)Glc6S
Procedure, shortened: as §1

[41] = target: Gal3S(b1-4)GlcNAc
Procedure, shortened: as §1

[42] = target: Gal3S(b1-4)GlcNAc6S
Procedure, shortened: as §1

[43] = target: Gal3S(b1-4)[Fuc(a1-3)]Glc
Procedure, shortened: as §1

[44] = target: Gal3S4S(b1-4)GlcNAc
Procedure, shortened: as §1

[45] = target: Gal3S6S(b1-4)GlcNAc
Procedure, shortened: as §1

[46] = target: Gal3S6S(b1-4)GlcNAc6S
Procedure, shortened: as §1

[47] = target: Gal4S(b1-4)GlcNAc
Procedure, shortened: as §1

[48] = target: Gal4S6S(b1-4)GlcNAc
Procedure, shortened: as §1

[49] = target: Gal6S(b1-4)Glc
Procedure, shortened: as §1

[50] = target: Gal6S(b1-4)Glc6S
Procedure, shortened: as §1

[51] = target: Gal6S(b1-4)GlcNAc
Procedure, shortened: as §1

[52] = target: Gal6S(b1-4)GlcNAc6S
Procedure, shortened: as §1

[53] = target: GalNAc(a1-3)Gal
Procedure, shortened: as §1

[54] = target: GalNAc(a1-3)GalNAc
Procedure, shortened: as §1

[55] = target: GalNAc(b1-3)Gal
Procedure, shortened: as §1

[56] = target: GalNAc(b1-3)Gal(a1-4)Gal(b1-4)GlcNAc
Procedure, shortened: as §1

[57] = target: GalNAc(b1-3)Gal(a1-4)Gal(b1-4)GlcNAc(b1-3)Gal(b1-4)Glc
Procedure, shortened: as §1

[58] = target: GalNAc(b1-3)GalNAc
Procedure, shortened: as §1

[59] = target: GalNAc(b1-4)GlcNAc
Procedure, shortened: as §1

[60] = target: GalNAc(b1-4)GlcNAc(b1-2)Man(a1-3)[GalNAc(b1-4)GlcNAc(b1-2)Man(a1-6)]Man(b1-4)GlcNAc(b1-4)GlcNAc
Procedure, shortened: as §1

[61] = target: Glc(a1-4)Glc
Procedure, shortened: as §1

[62] = target: Glc(a1-6)Glc(a1-6)Glc
Procedure, shortened: as §1

[63] = target: Glc(b1-4)Glc
Procedure, shortened: as §1

[64] = target: Glc(b1-6)Glc
Procedure, shortened: as §1

[65] = target: GlcA(b1-3)Gal
Procedure, shortened: as §1

[66] = target: GlcA(b1-3)GlcNAc
Procedure, shortened: as §1

[67] = target: GlcA(b1-6)Gal
Procedure, shortened: as §1

[68] = target: GlcNAc(a1-3)Gal(b1-4)GlcNAc
Procedure, shortened: as §1

[69] = target: GlcNAc(a1-4)Gal(b1-3)GlcNAc
Procedure, shortened: as §1

[70] = target: GlcNAc(a1-4)Gal(b1-4)GalNAc
Procedure, shortened: as §1

[71] = target: GlcNAc(a1-4)Gal(b1-4)GlcNAc
Procedure, shortened: as §1

[72] = target: GlcNAc(a1-4)Gal(b1-4)GlcNAc(b1-3)Gal(b1-4)Glc
Procedure, shortened: as §1

[73] = target: GlcNAc(a1-4)Gal(b1-4)GlcNAc(b1-3)Gal(b1-4)GlcNAc
Procedure, shortened: as §1

[74] = target: GlcNAc(a1-4)Gal(b1-4)GlcNAc(b1-3)Gal(b1-4)GlcNAc(b1-3)Gal(b1-4)GlcNAc
Procedure, shortened: as §1

[75] = target: GlcNAc(a1-4)Gal(b1-4)GlcNAc(b1-3)Gal(b1-4)[Fuc(a1-3)]GlcNAc(b1-3)Gal(b1-4)[Fuc(a1-3)]GlcNAc
Procedure, shortened: as §1

B1: HHL-2 (Homo sapiens), P07307 (protein)
chain: MAKDFQDIQQLSSEENDHPFHQGEGPGTRRLNPRRGNPFLKGPPPAQPLAQRLCSMVCFSLLALSFNILLLVVICVTGSQSEGHRGAQLQAELRSLKEAFSNFSSSTLTEVQAISTHGGSVGDKITSLGAKLEKQQQDLKADHDALLFHLKHFPVDLRFVACQMELLHSNGSQRTCCPVNWVEHQGSCYWFSHSGKAWAEAEKYCQLENAHLVVINSWEEQKFIVQHTNPFNTWIGLTDSDGSWKWVDGTDYRHNYKNWAVTQPDNWHGHELGGSEDCVEVQPDGRWNDDFCLQVYRWVCEKRRNATGEVA
glycan array binding signal (z-score) [1]: -0.358
glycan array binding signal (z-score) [2]: 0.043
glycan array binding signal (z-score) [3]: -0.499
glycan array binding signal (z-score) [4]: -0.658
glycan array binding signal (z-score) [5]: -0.72
glycan array binding signal (z-score) [6]: -0.813
glycan array binding signal (z-score) [7]: -0.467
glycan array binding signal (z-score) [8]: 0.874
glycan array binding signal (z-score) [9]: -0.297
glycan array binding signal (z-score) [10]: 0.004
glycan array binding signal (z-score) [11]: -0.872
glycan array binding signal (z-score) [12]: -0.033
glycan array binding signal (z-score) [13]: -0.327
glycan array binding signal (z-score) [14]: -0.52
glycan array binding signal (z-score) [15]: -0.573
glycan array binding signal (z-score) [16]: 0.183
glycan array binding signal (z-score) [17]: -0.675
glycan array binding signal (z-score) [18]: -0.276
glycan array binding signal (z-score) [19]: -0.47
glycan array binding signal (z-score) [20]: -0.542
glycan array binding signal (z-score) [21]: -0.522
glycan array binding signal (z-score) [22]: -0.243
glycan array binding signal (z-score) [23]: -0.447
glycan array binding signal (z-score) [24]: -0.728
glycan array binding signal (z-score) [25]: -0.211
glycan array binding signal (z-score) [26]: -0.474
glycan array binding signal (z-score) [27]: -0.643
glycan array binding signal (z-score) [28]: -0.686
glycan array binding signal (z-score) [29]: -0.29
glycan array binding signal (z-score) [30]: -0.55
glycan array binding signal (z-score) [31]: -0.539
glycan array binding signal (z-score) [32]: 0.683
glycan array binding signal (z-score) [33]: -0.077
glycan array binding signal (z-score) [34]: -0.588
glycan array binding signal (z-score) [35]: -0.583
glycan array binding signal (z-score) [36]: 0.269
glycan array binding signal (z-score) [37]: 2.04
glycan array binding signal (z-score) [38]: 2.62
glycan array binding signal (z-score) [39]: -0.798
glycan array binding signal (z-score) [40]: 1.08
glycan array binding signal (z-score) [41]: -0.744
glycan array binding signal (z-score) [42]: 0.161
glycan array binding signal (z-score) [43]: 0.929
glycan array binding signal (z-score) [44]: 1.94
glycan array binding signal (z-score) [45]: -0.306
glycan array binding signal (z-score) [46]: 1
glycan array binding signal (z-score) [47]: 0.361
glycan array binding signal (z-score) [48]: 0.284
glycan array binding signal (z-score) [49]: 1.35
glycan array binding signal (z-score) [50]: 1.64
glycan array binding signal (z-score) [51]: -0.519
glycan array binding signal (z-score) [52]: 3.54
glycan array binding signal (z-score) [53]: -0.378
glycan array binding signal (z-score) [54]: -0.715
glycan array binding signal (z-score) [55]: 0.208
glycan array binding signal (z-score) [56]: 0.336
glycan array binding signal (z-score) [57]: -0.49
glycan array binding signal (z-score) [58]: 0.593
glycan array binding signal (z-score) [59]: -0.795
glycan array binding signal (z-score) [60]: 3.17
glycan array binding signal (z-score) [61]: -0.322
glycan array binding signal (z-score) [62]: -0.425
glycan array binding signal (z-score) [63]: -0.859
glycan array binding signal (z-score) [64]: -0.914
glycan array binding signal (z-score) [65]: -0.102
glycan array binding signal (z-score) [66]: -0.012
glycan array binding signal (z-score) [67]: 0.662
glycan array binding signal (z-score) [68]: -0.572
glycan array binding signal (z-score) [69]: 0.252
glycan array binding signal (z-score) [70]: -0.538
glycan array binding signal (z-score) [71]: -0.571
glycan array binding signal (z-score) [72]: -0.428
glycan array binding signal (z-score) [73]: -0.284
glycan array binding signal (z-score) [74]: -0.327
glycan array binding signal (z-score) [75]: 2.64
